# Test results reported in publication PMC12279179.
# Results are given in words; binding and its absence hold for the method and conditions named. Binding seen in cells or lysates may run through a third protein. Some results given as binding are weak or reduced against the parent protein; the word gives no strength.
# Assays:
# GST-PABP1 = GST-PABP1 (UniProt P11940); assay: pull-down; 10 µg purified GST fusion protein incubated with HEK-293T cell lysates expressing PABP1-Myc or DDX3-Flag for 8 h at 4 °C; precipitated with GSH Magnetic Agarose Beads; blots with anti-GST, anti-Myc, anti-Flag; only the target purified
# DDX3-Flag = DDX3-Flag (UniProt O00571); assay: co-IP; ectopically expressed DDX3-Flag (or its mutants) and Myc-PABP1 in HEK293T cells; which tag was precipitated is not told
# GST-DDX3 [1] = biological target: GST-DDX3 (UniProt O00571); assay: pull-down; 10 µg purified GST fusion protein incubated with HEK-293T cell lysates expressing PABP1-Myc or DDX3-Flag for 8 h at 4 °C; precipitated with GSH Magnetic Agarose Beads; blots with anti-GST, anti-Myc, anti-Flag; only the target purified
# Flag-DDX3 = Flag-DDX3 (UniProt O00571); assay: co-IP; BHK-21 cells with or without siPABP1 treatment, transfected with Flag-DDX3 for 24 h, lysed, immunoprecipitated with anti-Flag antibody; immunoblotting
# GST-DDX3 [2] = biological target: GST-DDX3 (UniProt O00571); assay: pull-down; recombinant GST-DDX3 (GST as control) in BHK-21 cell lysate; immunoblotting; only the target purified
substance,measurement,setting,value
DDX3-Flag (from UniProt O00571 1-662),binding,GST-PABP1,binds
Myc-PABP1 (from UniProt P11940 1-636),binding,DDX3-Flag,binds
same,binding,GST-DDX3 [1],binds
PABP1 (from UniProt A0A3L7ISI1 1-636),binding,Flag-DDX3,binds
eIF3A (from UniProt A0A8C2LEX6 1-1361),binding,GST-DDX3 [2],binds
same,binding,Flag-DDX3,binds
